From PubChem BioAssay AID328 (DTP/NCI, 2004)
The list shows only some results of the screen, not a fair sample: it gathers tests that were run many times, whatever their T/C, doses with no T/C, and many T/C values between a quarter and a half above the control. Further doses and runs are listed elsewhere. T/C is the treated group as % of the vehicle group. Some doses have a count of surviving animals in place of a T/C: the source holds a T/C of zero for them, seemingly a mark for toxic or unscored doses. Some survivor counts are full or nearly so, which does not show that the dose was tolerated: the source hardly ever lists a survival T/C far under the control, and the zero likely stands for such cases as well. Counts of survivors are from the toxicity check (mostly the fifth day) where no day follows; animals may have died later. Schedules are NCI's codes, taken here to give the interval after Q, in days (D) or hours (H), and the number of doses after X. Some entries were tested several times; the results are listed from low to high. For survival time, this PubChem deposit counts one and a half times the control or more as active, and values a quarter to a half above the control carry no call in these data; other NCI protocols may use other cut-offs. Brackets with × stand for listed records that agree. Some T/C values are followed by the survivors on the day toxicity was checked, most often the fifth; where none is given, no animal had died by that day.

System: BDF1 mice, P388 leukemia ip, median survival T/C
Test: NCI In Vivo Anticancer Drug Screen. Data for tumor model P388 Leukemia (intraperitoneal) in B6D2F1 (BDF1) mice
Conditions: T/C endpoint: median survival time, higher T/C = longer survival
How it was run: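 Steps: implant the tumour, treat one group with compound and another with vehicle, record survival, then divide treated by control.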

[1] = dose: 400.0 mg/kg/injection, schedule: Q01DX009 (ip), vehicle: saline with Tween-80
[2] = dose: 50.0 mg/kg/injection, schedule: Q01DX009 (ip), vehicle: Klucel (hydroxypropylcellulose) (HPC)
[3] = dose: 100.0 mg/kg/injection, schedule: Q04DX003 (ip), vehicle: saline with Tween-80
[4] = dose: 50.0 mg/kg/injection, schedule: Q01DX009 (ip), vehicle: saline
[5] = dose: 100.0 mg/kg/injection, schedule: Q01DX009 (ip), vehicle: saline
[6] = dose: 200.0 mg/kg/injection, schedule: Q01DX009 (ip), vehicle: saline
[7] = dose: 400.0 mg/kg/injection, schedule: Q04DX003 (ip), vehicle: saline

## c1ccc(-c2cc[s+]s2)cc1
dose: 25.0 mg/kg/injection, schedule: Q01DX009 (ip), vehicle: water
  T/C: 127 and 137 % of control
dose: 50.0 mg/kg/injection, schedule: Q01DX009 (ip), vehicle: water
  survivor count: 5 of 6
dose: 50.0 mg/kg/injection, schedule: Q04DX003 (ip), vehicle: water
  T/C: 127 % of control
dose: 75.0 mg/kg/injection, schedule: Q01DX009 (ip), vehicle: water
  survivor count: 3 of 6
dose: 100.0 mg/kg/injection, schedule: Q01DX009 (ip), vehicle: water
  survivor count: 1 of 6
dose: 100.0 mg/kg/injection, schedule: Q04DX003 (ip), vehicle: water
  T/C: 125 % of control

## CC(C)=CC[P+](CCC[P+](CC=C(C)C)(c1ccccc1)c1ccccc1)(c1ccccc1)c1ccccc1
dose: 50.0 mg/kg/injection, schedule: Q01DX005 (ip), vehicle: saline
  survivor count: 0 of 6
dose: 100.0 mg/kg/injection, schedule: Q01DX005 (ip), vehicle: saline
  survivor count: 0 of 6
dose: 200.0 mg/kg/injection, schedule: Q01DX005 (ip), vehicle: saline
  survivor count: 0 of 6

## Cc1c2oc3c(C)ccc(C(=O)NCCCc4ccccc4)c3nc-2c(C(=O)NCCCc2ccccc2)c(N)c1=O
dose: 400.0 mg/kg/injection, schedule: Q04DX002 (ip), vehicle: DMSO
  survivor count: 4 of 6

## CS(=O)(=O)OCCC(=O)NCNC(=O)CCOS(C)(=O)=O
dose: 20.0 mg/kg/injection, schedule: Q04DX003 (ip), vehicle: Klucel (hydroxypropylcellulose) (HPC)
  T/C: 131 % of control
dose: 21.0 mg/kg/injection, schedule: Q04DX003 (ip), vehicle: Klucel (hydroxypropylcellulose) (HPC)
  T/C: 130 % of control

## Clc1ccc2c(c1)Cc1cc(N=Cc3ccccc3Cl)ccc1-2
dose: 42.5 mg/kg/injection, schedule: Q01DX001 (ip), vehicle: saline with Tween-80
  survivor count: 6 of 6
dose: 85.0 mg/kg/injection, schedule: Q01DX001 (ip), vehicle: saline with Tween-80
  survivor count: 6 of 6

## O=[N+]([O-])c1ccc(Sc2ccc(Cl)cc2)c2nonc12
dose: 25.0 mg/kg/injection, schedule: Q01DX009 (ip), vehicle: saline with Tween-80
  survivor count: 3 of 7
dose: 100.0 mg/kg/injection, schedule: Q01DX009 (ip), vehicle: saline with Tween-80
  survivor count: 2 of 7

## C1CC[CH]([Sn]([CH]2CCCCC2)[CH]2CCCCC2)CC1
dose: 3.12 mg/kg/injection, schedule: Q01DX009 (ip), vehicle: saline with Tween-80
  survivor count: 2 of 3

## CC(C)(O)c1cccc(F)c1
[1]
  T/C: 135 % of control

## C[C@H]1CCC/C=C/[C@@H]2C[C@H](O)C[C@H]2[C@H](O)/C=C/C(=O)O1
dose: 25.0 mg/kg/injection, schedule: Q01DX010 (ip), vehicle: water
  survivor count: 6 of 6
dose: 45.0 mg/kg/injection, schedule: Q01DX010 (ip), vehicle: water
  survivor count: 6 of 6
dose: 50.0 mg/kg/injection, schedule: Q01DX010 (ip), vehicle: water
  survivor count: 6 of 6
dose: 67.0 mg/kg/injection, schedule: Q01DX010 (ip), vehicle: water
  survivor count: 6 of 6
dose: 100.0 mg/kg/injection, schedule: Q01DX010 (ip), vehicle: water
  survivor count: 6 of 6
dose: 200.0 mg/kg/injection, schedule: Q01DX010 (ip), vehicle: water
  survivor count: 6 of 6
dose: 200.0 mg/kg/injection, schedule: Q04DX003 (ip), vehicle: Klucel (hydroxypropylcellulose) (HPC)
  survivor count: 6 of 6

## COC(OC)c1nc(SC)[nH]c(=O)c1C
[1]
  survivor count: 6 of 6

## CC12C=CC(=O)C=C1CCC1C3CCC(O)(C(=O)CO)C3(C)CC(O)C12F (centres undefined)
dose: 335.0 mg/kg/injection, schedule: Q04DX003 (sc), vehicle: steroid suspending solution
  survivor count: 5 of 6

## CCO/C=C1\SC(=S)N(c2ccccc2C)C1=O
dose: 29.3 mg/kg/injection, schedule: Q04DX003 (ip), vehicle: saline with Tween-80
  T/C: 127 % of control
dose: 44.0 mg/kg/injection, schedule: Q04DX003 (ip), vehicle: saline with Tween-80
  T/C: 127 % of control
[2]
  survivor count: 5 of 6
dose: 66.0 mg/kg/injection, schedule: Q04DX003 (ip), vehicle: saline with Tween-80
  T/C: 136 % of control
dose: 88.0 mg/kg/injection, schedule: Q01DX009 (ip), vehicle: Klucel (hydroxypropylcellulose) (HPC)
  T/C: 144 % of control
dose: 88.0 mg/kg/injection, schedule: Q04DX003 (ip), vehicle: saline with Tween-80
  T/C: 125 % of control
dose: 100.0 mg/kg/injection, schedule: Q01DX009 (ip), vehicle: Klucel (hydroxypropylcellulose) (HPC)
  T/C: 128 % of control
[3]
  T/C: 136 % of control (2×)
dose: 132.0 mg/kg/injection, schedule: Q01DX009 (ip), vehicle: Klucel (hydroxypropylcellulose) (HPC)
  survivor count: 5 of 6
dose: 132.0 mg/kg/injection, schedule: Q04DX003 (ip), vehicle: saline with Tween-80
  T/C: 140 % of control (2×)
dose: 200.0 mg/kg/injection, schedule: Q01DX009 (ip), vehicle: Klucel (hydroxypropylcellulose) (HPC)
  survivor count: 2 of 6
dose: 200.0 mg/kg/injection, schedule: Q04DX003 (ip), vehicle: saline with Tween-80
  T/C: 130, 131, 140 % of control [5 of 6 alive]
dose: 300.0 mg/kg/injection, schedule: Q01DX009 (ip), vehicle: Klucel (hydroxypropylcellulose) (HPC)
  survivor count: 3 of 6
dose: 300.0 mg/kg/injection, schedule: Q04DX003 (ip), vehicle: saline with Tween-80
  T/C: 140 % of control
dose: 400.0 mg/kg/injection, schedule: Q04DX003 (ip), vehicle: saline with Tween-80
  survivor count: 5 of 6

## c1ccc(N/N=C(/C[n+]2cc3ccccc3c3ccccc32)c2ccccc2)cc1
[2]
  T/C: 128 % of control

## COC(=O)CC1(O)C=CC(=O)C=C1
[4]
  survivor count: 2 of 4
[5]
  survivor count: 0 of 4

## CCCCN=CC(C)(C)NCCCC
[6]
  survivor count: 0 of 6 and 2 of 6
[7]
  survivor count: 3 of 6

## c1ccc2c(CC3NCCN3)cccc2c1
[4]
  survivor count: 3 of 6
[5]
  survivor count: 2 of 6
[6]
  survivor count: 0 of 6

## CCC12C=CCN3CCC4(c5cc(C(c6ccc(OC)cc6)c6cc7ccccc7[nH]6)c(OC)cc5N(C)C4C(O)(CO)C1O)C32 (centres undefined)
dose: 25.0 mg/kg/injection, schedule: Q01DX009 (ip), vehicle: saline
  survivor count: 6 of 6
[4]
  survivor count: 6 of 6
[5]
  survivor count: 2 of 6

## O=C1c2c(Cl)c(Cl)c(Cl)c(Cl)c2C(=O)N1c1ccccc1-c1ccccc1
dose: 87.5 mg/kg/injection, schedule: Q01DX009 (ip), vehicle: saline with Tween-80
  survivor count: 5 of 7

## c1ccc(COC2CN3CCC2CC3)cc1 (centres undefined)
[3]
  survivor count: 3 of 6

## O=c1[nH]c2cc(Cl)ccc2c(CCl)c1Cl
dose: 150.0 mg/kg/injection, schedule: Q01DX009 (ip), vehicle: saline with Tween-80
  survivor count: 6 of 6
dose: 225.0 mg/kg/injection, schedule: Q01DX009 (ip), vehicle: saline with Tween-80
  survivor count: 4 of 6
dose: 335.0 mg/kg/injection, schedule: Q01DX009 (ip), vehicle: saline with Tween-80
  survivor count: 0 of 6

## CCNC(C)(C)C(Cl)c1cccs1 (centres undefined)
dose: 12.5 mg/kg/injection, schedule: Q01DX009 (ip), vehicle: saline
  survivor count: 6 of 6
dose: 37.5 mg/kg/injection, schedule: Q01DX009 (ip), vehicle: saline
  survivor count: 5 of 6
dose: 75.0 mg/kg/injection, schedule: Q01DX009 (ip), vehicle: saline
  survivor count: 4 of 6
dose: 150.0 mg/kg/injection, schedule: Q01DX009 (ip), vehicle: saline
  survivor count: 4 of 6
[6]
  survivor count: 3 of 6
dose: 300.0 mg/kg/injection, schedule: Q01DX009 (ip), vehicle: saline
  survivor count: 0 of 6
[7]
  survivor count: 1 of 6

## COc1cccc(/C=C/[N+](=O)[O-])c1
dose: 30.0 mg/kg/injection, schedule: Q01DX009 (ip), vehicle: saline with Tween-80
  T/C: 125 % of control
dose: 45.0 mg/kg/injection, schedule: Q01DX009 (ip), vehicle: Klucel (hydroxypropylcellulose) (HPC)
  survivor count: 5 of 6
dose: 60.0 mg/kg/injection, schedule: Q01DX009 (ip), vehicle: Klucel (hydroxypropylcellulose) (HPC)
  survivor count: 0 of 6
dose: 120.0 mg/kg/injection, schedule: Q01DX009 (ip), vehicle: saline with Tween-80
  survivor count: 3 of 6
